The supplement of paper PMC8728848
This is one part of the list.

How the values were obtained:
Assay in all cases: glycan array binding signal (z-score within array); higher = stronger binding
Conditions in all cases: glycan notation: IUPAC condensed, linker removed
[1] = biological target: Neu5Ac(a2-3)[Neu5Ac(a2-6)]GalNAc
Procedure, shortened: (§1)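 From the Consortium for Functional Glycomics database, 3228 arrays were curated, keeping only those whose protein sequence was available. Binding is given as a within-array Z-score averaged across arrays sharing a protein sequence and across linkers. Negative Z-scores can be read as non-binding.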

Neu5Ac(a2-6)Gal = biological target: Neu5Ac(a2-6)Gal
Procedure, shortened: as §1

[2] = biological target: Neu5Ac(a2-6)Gal(b1-3)GlcNAc(b1-3)[Gal(b1-4)GlcNAc(b1-6)]Gal(b1-4)Glc
Procedure, shortened: as §1

Neu5Ac(a2-6)Gal(b1-4)Glc = biological target: Neu5Ac(a2-6)Gal(b1-4)Glc
Procedure, shortened: as §1

[3] = biological target: Neu5Ac(a2-6)Gal(b1-4)GlcNAc
Procedure, shortened: as §1

[4] = biological target: Neu5Ac(a2-6)Gal(b1-4)GlcNAc(b1-2)Man
Procedure, shortened: as §1

[5] = biological target: Neu5Ac(a2-6)Gal(b1-4)GlcNAc(b1-2)Man(a1-3)Man(b1-4)GlcNAc(b1-4)GlcNAc
Procedure, shortened: as §1

[6] = biological target: Neu5Ac(a2-6)Gal(b1-4)GlcNAc(b1-2)Man(a1-3)[Gal(b1-4)GlcNAc(b1-2)Man(a1-6)]Man(b1-4)GlcNAc(b1-4)GlcNAc
Procedure, shortened: as §1

[7] = biological target: Neu5Ac(a2-6)Gal(b1-4)GlcNAc(b1-2)Man(a1-3)[GlcNAc(b1-2)Man(a1-6)]Man(b1-4)GlcNAc(b1-4)GlcNAc
Procedure, shortened: as §1

[8] = biological target: Neu5Ac(a2-6)Gal(b1-4)GlcNAc(b1-2)Man(a1-3)[GlcNAc(b1-2)Man(b1-4)GlcNAc(b1-2)Man(a1-6)]Man(b1-4)GlcNAc(b1-4)GlcNAc
Procedure, shortened: as §1

[9] = biological target: Neu5Ac(a2-6)Gal(b1-4)GlcNAc(b1-2)Man(a1-3)[GlcNAc(b1-4)][Neu5Ac(a2-6)Gal(b1-4)GlcNAc(b1-2)Man(a1-6)]Man(b1-4)GlcNAc(b1-4)GlcNAc
Procedure, shortened: as §1

[10] = biological target: Neu5Ac(a2-6)Gal(b1-4)GlcNAc(b1-2)Man(a1-3)[Man(a1-6)]Man(b1-4)GlcNAc(b1-4)GlcNAc
Procedure, shortened: as §1

[11] = biological target: Neu5Ac(a2-6)Gal(b1-4)GlcNAc(b1-2)Man(a1-3)[Neu5Ac(a2-3)Gal(b1-4)GlcNAc(b1-2)Man(a1-6)]Man(b1-4)GlcNAc(b1-4)GlcNAc
Procedure, shortened: as §1

[12] = biological target: Neu5Ac(a2-6)Gal(b1-4)GlcNAc(b1-2)Man(a1-3)[Neu5Ac(a2-6)Gal(b1-4)GlcNAc(b1-2)Man(a1-6)]Man(b1-4)GlcNAc(b1-4)GlcNAc
Procedure, shortened: as §1

[13] = biological target: Neu5Ac(a2-6)Gal(b1-4)GlcNAc(b1-2)Man(a1-3)[Neu5Ac(a2-6)Gal(b1-4)GlcNAc(b1-2)Man(a1-6)]Man(b1-4)GlcNAc(b1-4)[Fuc(a1-6)]GlcNAc
Procedure, shortened: as §1

[14] = biological target: Neu5Ac(a2-6)Gal(b1-4)GlcNAc(b1-2)Man(a1-6)Man(b1-4)GlcNAc(b1-4)GlcNAc
Procedure, shortened: as §1

[15] = biological target: Neu5Ac(a2-6)Gal(b1-4)GlcNAc(b1-2)Man(a1-6)[Gal(b1-4)GlcNAc(b1-2)Man(a1-3)]Man(b1-4)GlcNAc(b1-4)GlcNAc
Procedure, shortened: as §1

[16] = biological target: Neu5Ac(a2-6)Gal(b1-4)GlcNAc(b1-2)Man(a1-6)[GlcNAc(b1-2)Man(a1-3)]Man(b1-4)GlcNAc(b1-4)GlcNAc
Procedure, shortened: as §1

[17] = biological target: Neu5Ac(a2-6)Gal(b1-4)GlcNAc(b1-2)Man(a1-6)[Man(a1-3)]Man(b1-4)GlcNAc(b1-4)GlcNAc
Procedure, shortened: as §1

[18] = biological target: Neu5Ac(a2-6)Gal(b1-4)GlcNAc(b1-2)[Neu5Ac(a2-6)Gal(b1-4)GlcNAc(b1-4)]Man(a1-3)[GlcNAc(b1-4)][Neu5Ac(a2-6)Gal(b1-4)GlcNAc(b1-2)[Neu5Ac(a2-6)Gal(b1-4)GlcNAc(b1-6)]Man(a1-6)]Man(b1-4)GlcNAc(b1-4)GlcNAc
Procedure, shortened: as §1

[19] = biological target: Neu5Ac(a2-6)Gal(b1-4)GlcNAc(b1-2)[Neu5Ac(a2-6)Gal(b1-4)GlcNAc(b1-4)]Man(a1-3)[GlcNAc(b1-4)][Neu5Ac(a2-6)Gal(b1-4)GlcNAc(b1-4)Man(a1-6)]Man(b1-4)GlcNAc(b1-4)GlcNAc
Procedure, shortened: as §1

[20] = biological target: Neu5Ac(a2-6)Gal(b1-4)GlcNAc(b1-2)[Neu5Ac(a2-6)Gal(b1-4)GlcNAc(b1-6)]Man(a1-6)[Neu5Ac(a2-6)Gal(b1-4)GlcNAc(b1-2)Man(a1-3)][GlcNAc(b1-4)]Man(b1-4)GlcNAc(b1-4)GlcNAc
Procedure, shortened: as §1

[21] = biological target: Neu5Ac(a2-6)Gal(b1-4)GlcNAc(b1-3)Gal(b1-3)GlcNAc
Procedure, shortened: as §1

[22] = biological target: Neu5Ac(a2-6)Gal(b1-4)GlcNAc(b1-3)Gal(b1-4)GlcNAc
Procedure, shortened: as §1

[23] = biological target: Neu5Ac(a2-6)Gal(b1-4)GlcNAc(b1-3)Gal(b1-4)GlcNAc(b1-2)Man(a1-3)[Neu5Ac(a2-6)Gal(b1-4)GlcNAc(b1-3)Gal(b1-4)GlcNAc(b1-2)Man(a1-6)]GalNAc
Procedure, shortened: as §1

[24] = biological target: Neu5Ac(a2-6)Gal(b1-4)GlcNAc(b1-3)Gal(b1-4)GlcNAc(b1-3)Gal(b1-4)GlcNAc
Procedure, shortened: as §1

[25] = biological target: Neu5Ac(a2-6)Gal(b1-4)GlcNAc(b1-3)Gal(b1-4)GlcNAc(b1-3)Gal(b1-4)GlcNAc(b1-2)Man(a1-3)[Neu5Ac(a2-6)Gal(b1-4)GlcNAc(b1-3)Gal(b1-4)GlcNAc(b1-3)Gal(b1-4)GlcNAc(b1-2)Man(a1-6)]GalNAc
Procedure, shortened: as §1

[26] = biological target: Neu5Ac(a2-6)Gal(b1-4)GlcNAc(b1-3)Gal(b1-4)GlcNAc(b1-3)GalNAc
Procedure, shortened: as §1

[27] = biological target: Neu5Ac(a2-6)Gal(b1-4)GlcNAc(b1-3)Gal(b1-4)GlcNAc(b1-3)[Neu5Ac(a2-6)Gal(b1-4)GlcNAc(b1-3)Gal(b1-4)GlcNAc(b1-6)]GalNAc
Procedure, shortened: as §1

[28] = biological target: Neu5Ac(a2-6)Gal(b1-4)GlcNAc(b1-3)Gal(b1-4)GlcNAc(b1-6)[Gal(b1-3)]GalNAc
Procedure, shortened: as §1

[29] = biological target: Neu5Ac(a2-6)Gal(b1-4)GlcNAc(b1-3)Gal(b1-4)[Fuc(a1-3)]GlcNAc(b1-3)Gal(b1-4)[Fuc(a1-3)]GlcNAc
Procedure, shortened: as §1

[30] = biological target: Neu5Ac(a2-6)Gal(b1-4)GlcNAc(b1-3)GalNAc
Procedure, shortened: as §1

[31] = biological target: Neu5Ac(a2-6)Gal(b1-4)GlcNAc(b1-3)[Neu5Ac(a2-6)Gal(b1-4)GlcNAc(b1-6)]GalNAc
Procedure, shortened: as §1

[32] = biological target: Neu5Ac(a2-6)Gal(b1-4)GlcNAc(b1-6)GalNAc
Procedure, shortened: as §1

[33] = biological target: Neu5Ac(a2-6)Gal(b1-4)GlcNAc(b1-6)[Gal(b1-3)GlcNAc(b1-3)]Gal(b1-4)Glc
Procedure, shortened: as §1

[34] = biological target: Neu5Ac(a2-6)Gal(b1-4)GlcNAc(b1-6)[Gal(b1-3)]GalNAc
Procedure, shortened: as §1

B1: BabA (Helicobacter pylori), O52269_HELPY (protein)
chain: AEDDGFYMSAGYQIGEAAQMVKNTKGIQELSDNYENLSNLLTRYSTLNTLIKLSADPSAVNAARENLGASAKNLIGDTKNSPAYQAVLLAINAAVGFWNVVGYVTQCGGNANGQKSTSSTTIFNNEPGYRSTSITCSLNGHMPGYYGPMSIENFKKLNEAYQILQTALKNGLPALKENNGTVNVTYSYTCSGEGNDNCSLQTTGVTNQNNGTKTETQTIDGKSVTTTISSKVVDSQ
B1 was tested, and the “glycan array binding signal (z-score)” value [1] was 0.421, the “glycan array binding signal (z-score)” value (Neu5Ac(a2-6)Gal) was 0.065 and the “glycan array binding signal (z-score)” value [2] was -0.428. For the same binder, the “glycan array binding signal (z-score)” value (Neu5Ac(a2-6)Gal(b1-4)Glc) was -0.136, the “glycan array binding signal (z-score)” value [3] was -0.468 and the “glycan array binding signal (z-score)” value [4] was -0.355. For the same binder, the “glycan array binding signal (z-score)” value [5] was -0.226, the “glycan array binding signal (z-score)” value [6] was 0.295 and the “glycan array binding signal (z-score)” value [7] was 0.136. For the same binder, the “glycan array binding signal (z-score)” value [8] was -0.829, the “glycan array binding signal (z-score)” value [9] was -0.637 and the “glycan array binding signal (z-score)” value [10] was -0.169. The “glycan array binding signal (z-score)” value [11] was -0.6, the “glycan array binding signal (z-score)” value [12] was -0.571 and the “glycan array binding signal (z-score)” value [13] was 1.19. For the same binder, the “glycan array binding signal (z-score)” value [14] was -0.055, the “glycan array binding signal (z-score)” value [15] was -0.488 and the “glycan array binding signal (z-score)” value [16] was -0.4. The “glycan array binding signal (z-score)” value [17] was -0.116, the “glycan array binding signal (z-score)” value [18] was -0.537 and the “glycan array binding signal (z-score)” value [19] was -0.618. For the same binder, the “glycan array binding signal (z-score)” value [20] was -0.482, the “glycan array binding signal (z-score)” value [21] was -0.743 and the “glycan array binding signal (z-score)” value [22] was -0.4. For the same binder, the “glycan array binding signal (z-score)” value [23] was 0.472, the “glycan array binding signal (z-score)” value [24] was -0.817 and the “glycan array binding signal (z-score)” value [25] was 5.39. The “glycan array binding signal (z-score)” value [26] was -0.682, the “glycan array binding signal (z-score)” value [27] was 2.44 and the “glycan array binding signal (z-score)” value [28] was -0.845. The “glycan array binding signal (z-score)” value [29] was -0.817, the “glycan array binding signal (z-score)” value [30] was -0.406 and the “glycan array binding signal (z-score)” value [31] was -0.5. The “glycan array binding signal (z-score)” value [32] was 0.09, the “glycan array binding signal (z-score)” value [33] was -0.437 and the “glycan array binding signal (z-score)” value [34] was -0.555.
